These are yes or no findings as the source states them, for the method shown. Where a sequence is shown, tags or fusion partners need not be part of it.
Biological target: three pseudomurein binding motifs with C-terminal ten-Histidine tag (3P-His10), the PMB domain of MTH719 (Methanothermobacter thermautotrophicus) (UniProt O26815)
Assay: SEC; Superdex 200 10/300 GL, room temperature, 50 mM NaH2PO4, 150 mM NaCl, pH 9.0; calibrated with globular proteins; both purified

B1: three pseudomurein binding motifs with C-terminal ten-Histidine tag (3P-His10), the PMB domain of MTH719 (domain or fragment, Methanothermobacter thermautotrophicus)
chain: MGGGFAASVKISVRQLTDAASWVRAYYGRYGRLPGKVTISGHGYSMAQFLYLLCRATVNINAGNVAPISVKSVASAPASGGWYRHGRLYRSSYVRVAKNILSFIDSRGRAPNYAITGLGRIPFQRLVYMYSKIIKFYGTNKRLPNYVTI
notes: short N-terminal peptide region resulting from the cloning procedure (LIC); also called PMB domain 3P-His10; 3P-His10 PMB domain; source: E. coli Rosetta gami 2 (pBADcLIC, arabinose induced), purified (Ni-NTA); not shown: His10, C-terminal, kept
binding: no binding (condition: at pH 9.0)

From article PMC3124540, “A Minimum of Three Motifs Is Essential for Optimal Binding of Pseudomurein Cell Wall-Binding Domain of Methanothermobacter thermautotrophicus” (PLoS ONE, 2011)
